Test results: paper PMC12707108, “CpoS-Inc interactions facilitate host cell modulation during Chlamydia trachomatis infection” (Infection and Immunity, 2025)
These are yes or no findings as the source states them, for the method shown. In cells and extracts the contact can be indirect. Binding can be weak; no strength is given.

Protein sequences, listed by entry. Tags and fused reporters are not part of them.
UniProt Q15286: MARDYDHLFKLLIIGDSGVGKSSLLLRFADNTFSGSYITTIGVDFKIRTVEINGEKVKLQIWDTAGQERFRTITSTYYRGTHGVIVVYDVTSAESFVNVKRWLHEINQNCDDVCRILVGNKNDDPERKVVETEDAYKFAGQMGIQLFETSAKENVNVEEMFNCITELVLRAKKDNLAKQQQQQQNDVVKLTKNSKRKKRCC

Target: CpoS HA-tag (full-length CpoS, CTL0481) (Chlamydia trachomatis serovar L2 (LGV 434/Bu))
Assay: co-IP

With eGFP-Rab35 (from UniProt Q15286 1-201) the binding was “binds”.
